Measured values from article PMC5690284.
These are yes or no findings as the source states them, for the method shown. In cells and extracts the contact can be indirect. Binding can be weak; no strength is given.

Molecular target: T1, Disabled-2 (Dab2) (mouse (endogenous in primary aortic SMC)) (UniProt P98078)
T1 sequence: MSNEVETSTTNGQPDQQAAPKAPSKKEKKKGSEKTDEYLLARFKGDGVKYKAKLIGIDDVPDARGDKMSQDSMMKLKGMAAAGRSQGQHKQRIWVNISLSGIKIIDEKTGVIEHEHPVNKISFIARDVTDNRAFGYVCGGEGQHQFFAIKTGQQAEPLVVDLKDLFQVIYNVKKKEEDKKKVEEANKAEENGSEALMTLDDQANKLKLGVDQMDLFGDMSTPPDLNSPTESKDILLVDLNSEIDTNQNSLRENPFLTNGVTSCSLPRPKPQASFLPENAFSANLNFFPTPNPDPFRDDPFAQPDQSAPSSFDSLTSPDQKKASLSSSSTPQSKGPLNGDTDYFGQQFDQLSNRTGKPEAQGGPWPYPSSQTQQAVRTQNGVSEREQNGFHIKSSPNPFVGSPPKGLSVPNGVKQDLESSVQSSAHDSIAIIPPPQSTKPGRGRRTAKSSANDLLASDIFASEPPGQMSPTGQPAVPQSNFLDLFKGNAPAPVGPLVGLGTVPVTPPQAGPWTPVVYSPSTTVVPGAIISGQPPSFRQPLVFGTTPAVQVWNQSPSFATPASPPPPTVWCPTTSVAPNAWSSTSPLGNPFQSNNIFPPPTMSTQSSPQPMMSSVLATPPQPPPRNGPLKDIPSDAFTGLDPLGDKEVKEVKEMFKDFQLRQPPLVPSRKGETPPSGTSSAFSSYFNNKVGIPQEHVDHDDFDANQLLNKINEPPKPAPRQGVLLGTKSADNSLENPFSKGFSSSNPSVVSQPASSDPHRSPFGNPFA
Experiment: co-IP; primary aortic SMC (wild type or Lrp1^Y63F), starved 24 hr, 10 ng/ml PDGF-BB for 10 min, cross-linked with 0.05 µM DSP for 30 min, lysed in PBS with 1% TritonX; immunoprecipitation with antibodies against Shc1 or Dab2, immunoblot for LRP1

binding: binds
Substance: Lrp1 Y63F (knock-in mutant, tyrosine of the distal NPxY motif replaced with phenylalanine) (receptor)
